Among the data in the supplement of paper PMC12819154, “High-throughput peptide-centric local stability assay extends protein–ligand identification to membrane proteins, tissues and bacteria” (Nature Structural & Molecular Biology, 2025) are log2 fold change values, retold here.

By UniProt entry, the sequences of proteins in these tests, tags left out. Where a name states a change or a piece, a line headed by the entry shows the natural chain unless it says otherwise.
UniProt O35153: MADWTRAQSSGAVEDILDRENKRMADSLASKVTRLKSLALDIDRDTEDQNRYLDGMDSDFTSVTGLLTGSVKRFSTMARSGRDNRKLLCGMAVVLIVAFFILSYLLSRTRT
UniProt O09117: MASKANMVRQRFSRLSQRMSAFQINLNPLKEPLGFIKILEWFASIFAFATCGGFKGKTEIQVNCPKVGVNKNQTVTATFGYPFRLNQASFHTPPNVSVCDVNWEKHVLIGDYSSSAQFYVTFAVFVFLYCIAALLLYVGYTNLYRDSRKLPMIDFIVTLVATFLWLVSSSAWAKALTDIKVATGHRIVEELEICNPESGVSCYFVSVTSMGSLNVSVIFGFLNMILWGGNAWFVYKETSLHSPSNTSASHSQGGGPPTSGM
UniProt G3XA57, whole entry: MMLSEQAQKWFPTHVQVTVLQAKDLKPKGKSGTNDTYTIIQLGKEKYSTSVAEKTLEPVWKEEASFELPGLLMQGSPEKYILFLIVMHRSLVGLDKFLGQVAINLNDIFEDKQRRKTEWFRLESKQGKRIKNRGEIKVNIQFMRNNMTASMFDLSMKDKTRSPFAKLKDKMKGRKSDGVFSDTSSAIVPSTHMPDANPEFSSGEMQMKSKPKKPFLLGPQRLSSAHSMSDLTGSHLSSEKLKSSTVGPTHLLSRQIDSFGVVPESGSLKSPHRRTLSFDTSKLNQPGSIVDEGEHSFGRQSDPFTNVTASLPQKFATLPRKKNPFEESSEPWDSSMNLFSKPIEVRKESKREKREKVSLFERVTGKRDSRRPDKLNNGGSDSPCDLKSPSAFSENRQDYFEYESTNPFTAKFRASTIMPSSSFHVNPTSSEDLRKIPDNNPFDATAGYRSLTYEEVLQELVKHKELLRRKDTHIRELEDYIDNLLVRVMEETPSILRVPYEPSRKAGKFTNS
UniProt O09174: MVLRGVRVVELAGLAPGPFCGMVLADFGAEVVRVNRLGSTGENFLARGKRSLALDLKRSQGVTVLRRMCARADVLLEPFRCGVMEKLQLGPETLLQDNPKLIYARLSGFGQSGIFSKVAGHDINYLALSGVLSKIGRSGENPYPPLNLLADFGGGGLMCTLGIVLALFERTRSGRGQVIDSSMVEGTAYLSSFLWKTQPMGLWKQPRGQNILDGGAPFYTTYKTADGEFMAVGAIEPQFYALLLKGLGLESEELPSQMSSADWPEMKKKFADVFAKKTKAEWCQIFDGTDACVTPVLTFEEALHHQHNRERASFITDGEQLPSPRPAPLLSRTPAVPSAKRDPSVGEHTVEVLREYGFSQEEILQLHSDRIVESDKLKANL
UniProt O08856: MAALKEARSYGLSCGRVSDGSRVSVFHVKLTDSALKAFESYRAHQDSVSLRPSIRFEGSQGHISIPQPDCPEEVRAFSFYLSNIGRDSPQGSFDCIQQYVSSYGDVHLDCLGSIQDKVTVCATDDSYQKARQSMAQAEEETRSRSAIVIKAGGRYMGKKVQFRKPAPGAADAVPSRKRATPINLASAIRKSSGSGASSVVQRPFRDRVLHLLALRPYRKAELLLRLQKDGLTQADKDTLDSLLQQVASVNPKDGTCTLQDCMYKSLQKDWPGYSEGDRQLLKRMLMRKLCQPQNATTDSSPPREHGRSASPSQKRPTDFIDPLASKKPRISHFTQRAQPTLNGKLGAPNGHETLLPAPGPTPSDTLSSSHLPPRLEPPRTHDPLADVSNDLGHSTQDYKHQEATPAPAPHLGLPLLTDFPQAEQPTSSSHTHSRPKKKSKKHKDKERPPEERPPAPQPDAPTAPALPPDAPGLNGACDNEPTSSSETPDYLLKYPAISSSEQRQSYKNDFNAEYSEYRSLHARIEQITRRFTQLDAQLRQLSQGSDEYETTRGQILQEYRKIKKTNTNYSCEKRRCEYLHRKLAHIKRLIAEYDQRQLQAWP
UniProt O09061: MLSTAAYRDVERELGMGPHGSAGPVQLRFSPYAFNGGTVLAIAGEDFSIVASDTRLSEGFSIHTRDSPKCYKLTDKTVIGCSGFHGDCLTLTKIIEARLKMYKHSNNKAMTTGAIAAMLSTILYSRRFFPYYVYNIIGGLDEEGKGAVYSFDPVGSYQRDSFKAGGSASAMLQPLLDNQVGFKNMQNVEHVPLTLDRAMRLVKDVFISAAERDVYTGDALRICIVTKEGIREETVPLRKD
UniProt O35188: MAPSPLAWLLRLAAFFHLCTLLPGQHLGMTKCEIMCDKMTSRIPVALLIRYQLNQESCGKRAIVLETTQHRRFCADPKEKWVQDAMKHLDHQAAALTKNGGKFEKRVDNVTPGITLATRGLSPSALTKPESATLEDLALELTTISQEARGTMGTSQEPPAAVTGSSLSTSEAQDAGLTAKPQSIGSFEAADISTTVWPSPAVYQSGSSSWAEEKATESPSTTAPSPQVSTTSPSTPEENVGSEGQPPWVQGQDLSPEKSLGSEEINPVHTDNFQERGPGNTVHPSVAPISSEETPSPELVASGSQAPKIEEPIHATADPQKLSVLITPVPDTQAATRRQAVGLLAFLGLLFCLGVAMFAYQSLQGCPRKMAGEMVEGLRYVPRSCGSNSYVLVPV
UniProt B5X0G2: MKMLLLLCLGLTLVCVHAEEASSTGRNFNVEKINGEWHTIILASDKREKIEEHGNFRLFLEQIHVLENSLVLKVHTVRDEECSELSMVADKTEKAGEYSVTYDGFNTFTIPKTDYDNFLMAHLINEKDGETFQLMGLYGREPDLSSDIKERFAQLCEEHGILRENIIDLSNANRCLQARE
UniProt O08734: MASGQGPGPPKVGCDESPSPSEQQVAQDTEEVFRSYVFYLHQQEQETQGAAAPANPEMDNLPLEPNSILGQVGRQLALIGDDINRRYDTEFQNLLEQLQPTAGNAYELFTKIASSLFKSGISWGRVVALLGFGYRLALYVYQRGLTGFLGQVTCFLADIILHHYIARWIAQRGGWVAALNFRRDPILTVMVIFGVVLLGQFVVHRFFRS
UniProt O09164: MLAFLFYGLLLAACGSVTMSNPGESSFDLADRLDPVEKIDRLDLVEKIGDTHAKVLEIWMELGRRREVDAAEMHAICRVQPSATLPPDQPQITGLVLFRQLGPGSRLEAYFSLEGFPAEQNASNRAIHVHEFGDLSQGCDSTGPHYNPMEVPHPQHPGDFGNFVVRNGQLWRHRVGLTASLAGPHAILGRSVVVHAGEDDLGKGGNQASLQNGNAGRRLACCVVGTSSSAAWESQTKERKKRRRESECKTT
UniProt O08705: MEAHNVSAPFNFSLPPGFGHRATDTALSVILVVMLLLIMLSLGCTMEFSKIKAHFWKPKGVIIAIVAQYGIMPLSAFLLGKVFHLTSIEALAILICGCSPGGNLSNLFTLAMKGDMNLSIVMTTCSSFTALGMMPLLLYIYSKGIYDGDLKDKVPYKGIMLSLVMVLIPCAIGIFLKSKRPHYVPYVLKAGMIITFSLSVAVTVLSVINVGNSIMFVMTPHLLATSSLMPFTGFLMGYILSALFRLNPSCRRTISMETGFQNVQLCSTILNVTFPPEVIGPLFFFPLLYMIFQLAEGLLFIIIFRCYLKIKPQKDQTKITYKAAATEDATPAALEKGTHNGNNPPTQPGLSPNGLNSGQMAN
UniProt E9Q4F7: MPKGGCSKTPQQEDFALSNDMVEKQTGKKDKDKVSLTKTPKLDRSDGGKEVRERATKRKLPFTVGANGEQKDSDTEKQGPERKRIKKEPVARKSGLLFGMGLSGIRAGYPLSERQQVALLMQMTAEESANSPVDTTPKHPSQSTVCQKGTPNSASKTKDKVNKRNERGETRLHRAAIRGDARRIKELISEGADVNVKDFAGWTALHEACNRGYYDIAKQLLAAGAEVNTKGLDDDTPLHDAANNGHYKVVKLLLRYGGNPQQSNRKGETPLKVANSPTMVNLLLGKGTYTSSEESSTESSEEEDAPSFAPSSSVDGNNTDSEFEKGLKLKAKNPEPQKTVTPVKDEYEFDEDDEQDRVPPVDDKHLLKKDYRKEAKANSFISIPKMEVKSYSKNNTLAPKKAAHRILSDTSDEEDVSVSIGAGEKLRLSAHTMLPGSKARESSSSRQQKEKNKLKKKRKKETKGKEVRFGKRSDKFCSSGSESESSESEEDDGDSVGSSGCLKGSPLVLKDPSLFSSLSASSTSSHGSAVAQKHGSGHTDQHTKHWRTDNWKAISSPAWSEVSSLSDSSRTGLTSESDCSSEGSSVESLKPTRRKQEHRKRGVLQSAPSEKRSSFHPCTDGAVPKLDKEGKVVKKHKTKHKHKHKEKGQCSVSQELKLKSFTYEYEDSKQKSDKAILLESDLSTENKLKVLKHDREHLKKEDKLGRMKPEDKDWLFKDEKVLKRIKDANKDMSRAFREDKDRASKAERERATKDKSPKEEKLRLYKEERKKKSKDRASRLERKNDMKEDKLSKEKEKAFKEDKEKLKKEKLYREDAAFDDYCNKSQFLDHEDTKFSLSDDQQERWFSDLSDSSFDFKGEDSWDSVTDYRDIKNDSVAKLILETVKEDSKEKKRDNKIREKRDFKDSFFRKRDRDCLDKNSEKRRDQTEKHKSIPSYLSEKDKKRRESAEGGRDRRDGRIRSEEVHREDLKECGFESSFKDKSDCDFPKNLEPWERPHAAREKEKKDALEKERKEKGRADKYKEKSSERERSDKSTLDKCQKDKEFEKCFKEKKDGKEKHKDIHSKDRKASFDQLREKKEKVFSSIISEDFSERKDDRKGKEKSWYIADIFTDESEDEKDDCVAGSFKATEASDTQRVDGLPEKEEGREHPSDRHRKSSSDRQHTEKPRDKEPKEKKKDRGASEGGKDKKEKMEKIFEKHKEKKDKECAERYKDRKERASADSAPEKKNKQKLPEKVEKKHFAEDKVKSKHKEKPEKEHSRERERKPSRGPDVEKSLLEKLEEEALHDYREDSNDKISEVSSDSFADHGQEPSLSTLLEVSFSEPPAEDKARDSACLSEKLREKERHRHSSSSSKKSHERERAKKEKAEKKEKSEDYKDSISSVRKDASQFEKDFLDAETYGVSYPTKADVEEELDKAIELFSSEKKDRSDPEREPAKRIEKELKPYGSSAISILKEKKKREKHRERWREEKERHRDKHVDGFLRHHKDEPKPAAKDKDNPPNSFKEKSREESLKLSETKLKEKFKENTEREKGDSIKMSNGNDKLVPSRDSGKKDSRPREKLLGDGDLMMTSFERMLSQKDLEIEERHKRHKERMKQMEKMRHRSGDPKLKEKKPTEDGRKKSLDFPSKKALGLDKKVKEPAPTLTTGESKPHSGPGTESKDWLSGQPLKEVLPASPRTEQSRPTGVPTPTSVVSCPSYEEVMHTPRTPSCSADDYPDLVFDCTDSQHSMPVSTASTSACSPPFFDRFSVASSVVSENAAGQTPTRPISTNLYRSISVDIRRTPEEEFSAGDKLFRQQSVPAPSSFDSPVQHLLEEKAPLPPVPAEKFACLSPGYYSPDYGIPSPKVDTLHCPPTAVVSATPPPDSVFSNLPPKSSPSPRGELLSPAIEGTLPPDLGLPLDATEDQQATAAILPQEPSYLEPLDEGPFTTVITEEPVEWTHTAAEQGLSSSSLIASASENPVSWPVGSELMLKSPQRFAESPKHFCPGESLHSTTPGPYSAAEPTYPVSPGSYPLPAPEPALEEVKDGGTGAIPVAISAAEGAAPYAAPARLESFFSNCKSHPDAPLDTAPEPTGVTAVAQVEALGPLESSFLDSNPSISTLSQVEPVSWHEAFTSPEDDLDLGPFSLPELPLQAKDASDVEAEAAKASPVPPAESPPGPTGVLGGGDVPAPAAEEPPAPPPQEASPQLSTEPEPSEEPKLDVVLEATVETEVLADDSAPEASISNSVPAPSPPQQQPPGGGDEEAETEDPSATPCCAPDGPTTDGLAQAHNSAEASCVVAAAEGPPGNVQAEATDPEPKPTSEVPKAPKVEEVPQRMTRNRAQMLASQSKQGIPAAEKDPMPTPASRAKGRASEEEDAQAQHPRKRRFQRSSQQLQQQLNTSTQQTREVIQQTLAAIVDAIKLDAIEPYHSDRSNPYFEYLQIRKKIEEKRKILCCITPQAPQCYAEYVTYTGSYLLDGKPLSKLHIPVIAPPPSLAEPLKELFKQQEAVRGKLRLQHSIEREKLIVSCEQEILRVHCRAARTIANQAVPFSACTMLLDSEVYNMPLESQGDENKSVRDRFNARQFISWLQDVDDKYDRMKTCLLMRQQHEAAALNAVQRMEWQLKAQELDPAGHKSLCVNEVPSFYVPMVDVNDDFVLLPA
UniProt O35453: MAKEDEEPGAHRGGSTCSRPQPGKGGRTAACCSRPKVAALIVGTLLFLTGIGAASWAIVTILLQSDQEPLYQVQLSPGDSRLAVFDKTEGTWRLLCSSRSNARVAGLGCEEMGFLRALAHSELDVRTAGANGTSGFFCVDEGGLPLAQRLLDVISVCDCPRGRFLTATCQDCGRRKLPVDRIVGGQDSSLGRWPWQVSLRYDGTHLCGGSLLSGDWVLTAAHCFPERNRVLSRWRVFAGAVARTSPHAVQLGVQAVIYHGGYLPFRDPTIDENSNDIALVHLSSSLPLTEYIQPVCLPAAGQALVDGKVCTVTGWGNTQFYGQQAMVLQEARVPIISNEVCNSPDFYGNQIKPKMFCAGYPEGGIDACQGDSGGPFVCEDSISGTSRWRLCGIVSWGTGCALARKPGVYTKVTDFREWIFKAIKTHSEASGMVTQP

This is one part of the list. Small differences around the control level are noise.

Compound in the assay: CN[C@@H]1C[C@H]2O[C@@](C)([C@@H]1OC)n1c3ccccc3c3c4c(c5c6ccccc6n2c5c31)C(=O)NC4 [staurosporine]
Briefly: log2 fold change of tryptic peptide abundance, ligand vs vehicle (limited proteolysis) (log2 ratio); higher = more trypsin-susceptible (destabilized). The conditions noted are these: ligand concentration: 20 uM; sample: mouse liver crude lysate; replicate design: treated separately.
“UniProt C0HKD8 (peptide sequence: ELEQEAKR, peptide start residue: 224)”: the log2 fold change is -0.4. Then “UniProt G5E8P1 (peptide sequence: LLIELLR, peptide start residue: 537)”, with 0.275. In the case of “UniProt O35153 (peptide sequence: LKSLALDIDRDTEDQNR, peptide start residue: 35)” it was -0.252. In the case of “UniProt E9Q6D6 (peptide sequence: SVLLNHMAR, peptide start residue: 314)” it was 0.232. In the case of “UniProt F8VPZ9 (peptide sequence: ENMGNPGAAEGAQGRPR, peptide start residue: 1407)”, the log2 fold change came out at 0.476. For “UniProt O09117 (peptide sequence: GKTEIQVNCPK, peptide start residue: 56)”, the log2 fold change was -0.509. Then “UniProt G3XA57 (peptide sequence: WFPTHVQVTVLQAK, peptide start residue: 10)”, with -0.221; and “UniProt O09174 (peptide sequence: IVESDKLK, peptide start residue: 371)”, with -0.0987. In the case of “UniProt O08856 (peptide sequence: VLHLLALRPYRK, peptide start residue: 208)” it was -0.466; in that of “UniProt B2RX12 (peptide sequence: GINLSGGQR, peptide start residue: 806)”, -0.29; in that of “UniProt O35126 (peptide sequence: LALAAGPALRPDMSYAER, peptide start residue: 988)”, 0.274. Then “UniProt E9Q8I9 (peptide sequence: VALESLYR, peptide start residue: 402)”, with 0.138. On to “UniProt O09061 (peptide sequence: LSEGFSIHTR, peptide start residue: 56)”, for which the log2 fold change came to 0.278. Take “UniProt E9Q349 (peptide sequence: QLQALNPEAGGGK, peptide start residue: 174)”: the log2 fold change stood at 0.473. Then “UniProt G3UZ78 (peptide sequence: DTERADEIR, peptide start residue: 1380)”, with 0.0891; and “UniProt B9EJR8 (peptide sequence: AALLDPFAAVR, peptide start residue: 171)”, with 0.199. Then “UniProt O08740 (peptide sequence: ITINKDTK, peptide start residue: 19)”, with -0.474; and “UniProt O35188 (peptide sequence: IPVALLIR, peptide start residue: 43)”, with 0.235; and “UniProt B5X0G2 (peptide sequence: EKIEEHGNFR, peptide start residue: 48)”, with 0.664. In the case of “UniProt D3YWQ0 (peptide sequence: EANPEKFNSR, peptide start residue: 469)” it was -0.0657. In the case of “UniProt O35375 (peptide sequence: STWISSANPNDR, peptide start residue: 667)”, the log2 fold change is -0.183. As for “UniProt O35382 (peptide sequence: KFLDASQYSAAGGSSVR, peptide start residue: 241)”, the log2 fold change was -0.253. Regarding “UniProt O08734 (peptide sequence: QLALIGDDINRR, peptide start residue: 75)”, the log2 fold change is 0.0706. In the case of “UniProt G3X9G7 (peptide sequence: SLPGVHNVSTLSDTSK, peptide start residue: 72)” it was 0.243. In the case of “UniProt O08583 (peptide sequence: PAPYSRPK, peptide start residue: 73)” it was -0.691. Then “UniProt E9Q555 (peptide sequence: QAAVVMLDR, peptide start residue: 500)”, with 0.364; and “UniProt O08709 (peptide sequence: KGESVMVVPTLSEEEAKQCFPK, peptide start residue: 183)”, with -0.173; and “UniProt O09164 (peptide sequence: EVDAAEMHAICR, peptide start residue: 67)”, with 0.444. As to “UniProt O08705 (peptide sequence: AAATEDATPAALEK, peptide start residue: 323)”, the log2 fold change was -0.0615. Consider “UniProt G3X8U3 (peptide sequence: SLHELNPR, peptide start residue: 49)”, for which the log2 fold change came out at 0.384. Then “UniProt E9Q4F7 (peptide sequence: SFTYEYEDSKQK, peptide start residue: 660)”, with 0.499. In the case of “UniProt O08796 (peptide sequence: FCEKDEEWDR, peptide start residue: 538)” it was -0.903; in that of “UniProt B2RUR8 (peptide sequence: NMGGLMHSK, peptide start residue: 520)”, 0.329. In the case of “UniProt D3YZP9 (peptide sequence: MDKLEAEKR, peptide start residue: 214)” it was -0.336; in that of “UniProt O35453 (peptide sequence: AKEDEEPGAHR, peptide start residue: 2)”, -0.26; in that of “UniProt B2RWS6 (peptide sequence: LIQQQLVLLLHAHK, peptide start residue: 338)”, -0.226.
